Results: the supplement of paper PMC5949888
Most values lie at the floor of the assay. Slopes are relative: functional sequences can read slightly below zero.

tested on: Saccharomyces cerevisiae PS128 hsf1 delta, HSF1(1-493) fusion; assay: growth estimate (transactivation domain function in HSF1 fusion, heat-shock survival) (a.u. (slope of normalised read count over time)); higher = stronger growth at 37°C, i.e. more transactivation activity; details: library: random library

Row | Substance | growth estimate
1 | GDRTCCYMALYPPAKGMRAA | < -0.25
2 | TFLGGAAHKAGKRIVE | < -0.25
3 | QLDSSGVRVRSTPVSSATFN | < -0.25
4 | ALVHAELIRRTFNQAGKKD | < -0.25
5 | NPQFLRSLRARHRPAGRDRP | < -0.25
6 | SSFACHMVLKSNGN | < -0.25
7 | MIRLF | < -0.25
8 | SSPSRTRVM | < -0.25
9 | RAVIMAYIWASSLSLLRISA | < -0.25
10 | WGQAVKVYGQVLCLGLGCKD | < -0.25
11 | LGYVTRTAGTRSPG | -0.246
12 | VMRALDPAEMSGHRSCNIED | < -0.25
13 | QQTVRHLLMERAHGILGAVR | < -0.25
14 | LPH | < -0.25
15 | LSLTRNQSRTDGKARGDITG | < -0.25
16 | YTIRARVDNRLTHFVFAVPL | < -0.25
17 | EQFVAPCWAE | < -0.25
18 | HWNIIRVEFISGGHDYPTPC | < -0.25
19 | CKRHNNCPLP | < -0.25
20 | LDKVDAHRPSSVIVPPVKRN | < -0.25
21 | LYRGPNRCDYLAINPWEVVA | < -0.25
22 | RQPTKIPA | < -0.25
23 | GRWIIYCVKFETASVCSYTG | -0.245

Row | Substance | growth estimate
24 | DRSTTKGFRVSRQRFAMIIR | < -0.25
25 | VVIRLGRRLLFARH | < -0.25
26 | IALLCSL | < -0.25
27 | TVYWEAVLLDCIPWWRPTFC | < -0.25
28 | PCRDNPL | < -0.25
29 | CLG | < -0.25
30 | PDGEHFFRSGHMGTGWYRPP | < -0.25
31 | RPG | < -0.25
32 | KSRLCWKSALGVRIDKVS | < -0.25
33 | ARHRCLGEGAFLAIGSTGVL | < -0.25
34 | IGYW | < -0.25
35 | SRRRRHHSTEGRL | < -0.25
36 | YGLQDYSWASTRSSA | < -0.25
37 | LPPHCDGGGL | < -0.25
38 | GGSCIRFVEYYLCKDC | < -0.25
39 | TVLHGAVFLKLHSRSAINFW | < -0.25
40 | VSNLIHYDNSMSVGTTYIAL | < -0.25
41 | AGRKD | < -0.25
42 | YLRTSSNPLHRASLCYPGIT | < -0.25
43 | TVSCGSGEYNRLEGEGTWFW | < -0.25
44 | FGLLGRLNEIIRTHSAVGDQ | -0.248
45 | REVFTTEENSWMDSGVRRDA | < -0.25
46 | KNFMVFFFSNPGGFCTAIDW | < -0.25

Row | Substance | growth estimate
47 | QAVRQATFGAGEGSKAKCSW | < -0.25
48 | LLNYLS | < -0.25
49 | YREC | < -0.25
50 | RLRGLVSV | < -0.25
51 | LNGCHSGRKRSALWFPGAEG | < -0.25
52 | EDLLPKWPAFATIEEALATI | < -0.25
53 | AHTLRTMPGRTVEPPAWVRC | < -0.25
54 | PSIPG | < -0.25
55 | FIAGIMPCTTRGRCRFTYAL | < -0.25
56 | PSPFEYVVL | < -0.25
57 | HNSFESHIRLVSRYGSRFTY | < -0.25
58 | YAPDELPSLPDSITVESFPT | < -0.25
59 | PCFYGPFYAPGVSVKRPLQA | < -0.25
60 | FRVTAPRGNADESMDRITRL | < -0.25
61 | VVLHFRASYIPYLRLST | < -0.25
62 | VLLADERIRIRLLSLPTGTV | < -0.25
63 | EVTVT | < -0.25
64 | GGWSKVRYCRESRSAETPIS | < -0.25
65 | QANGLVFGADIGWQLDSSVG | < -0.25
66 | SAFKP | < -0.25
67 | SFDPLVNDHSGVACKLLLPR | < -0.25
68 | VWCKYI | < -0.25
69 | AAQFGYLRKAGSDESTGFSH | < -0.25

Row | Substance | growth estimate
70 | AEYTTYLDLSSRFLASGLTR | < -0.25
71 | SHFLASMTHNFANQVCVHLR | < -0.25
72 | NLYGPQV | < -0.25
73 | FTRDRGGRS | < -0.25
74 | RTIISTSGARFLRITCFGNG | < -0.25
75 | LSHTVG | < -0.25
76 | LREACRIAAALQDGCLKLAS | < -0.25
77 | HRGVHGVIWFHPRIGWRGTS | < -0.25
78 | ASCGEAQNAQKECPGRATNG | < -0.25
79 | GLLFV | < -0.25
80 | SLRHLDTLVVARAAVGIPKN | < -0.25
81 | YDPSKA | < -0.25
82 | VLVIVLLQTKL | < -0.25
83 | SEFACTDKYKQEHYCLCPAV | < -0.25
84 | PDLLQRTLLLS | < -0.25
85 | ADSCTEWEPRIVTFKT | < -0.25
86 | FIPRSSQAAAGDIPAMNSSD | < -0.25
87 | LHRSGGNFTRSP | < -0.25
88 | SRIIIFRIYVVEGQVLVVSS | < -0.25
89 | QLGLLRLLWVHTMGPCLEYA | < -0.25
90 | SAEDVPGSNFMLPMGIGVCK | -0.245
91 | KKSLLSVLRTGTFKLQRVGL | < -0.25
92 | SSLNSFGL | < -0.25

Row | Substance | growth estimate
93 | VYSDVKVRKVCFGSVRLPAP | < -0.25
94 | GRLGYT | < -0.25
95 | GDTGLGMQLL | < -0.25
96 | IVVEVDGGIQKHTGLGALY | < -0.25
97 | LRREETSDGYTI | < -0.25
98 | NLNFLNPPQRGVEEARPVTW | -0.175
99 | IRKHL | < -0.25
100 | EEILRSKRSGKLAAPHRVQH | -0.243
101 | NLATRSHNA | < -0.25
102 | GATGGMITA | < -0.25
103 | RHCLSLRRSSVHRPLDCSAC | < -0.25
104 | EKATVAGAPLRPCTSGEEKT | < -0.25
105 | ISFAGPPLLS | < -0.25
106 | YRGIEGITMDVLRPQVFWAK | < -0.25
107 | TPTILEKVPIK | < -0.25
108 | IVHRLLRISVIASD | -0.246
109 | CLITEGRRANC | < -0.25
110 | IVRPKAPGRGHFIVCVGLHA | < -0.25
111 | STFQSSEAPGGCEAGVNMKG | < -0.25
112 | LIFMGPEESIKKSSMVSTIR | < -0.25
113 | KCEAGEYVIKGRWLIGHAID | < -0.25
114 | LPKPGRGVVWPSTHQDVRSD | < -0.25
115 | LYVRRVLYCKS | < -0.25

Row | Substance | growth estimate
116 | WIFKKASSRAISLGTPL | < -0.25
117 | GTCP | < -0.25
118 | VSA | < -0.25
119 | MFRFLKETWR | -0.243
120 | HRHSGH | < -0.25
121 | WRAKTPLRGARGLAETEPWL | < -0.25
122 | YSYL | < -0.25
123 | IQRSKERW | < -0.25
124 | STGASFY | < -0.25
125 | TRLQRSKHDLA | < -0.25
126 | RNILRS | -0.241
127 | AELQEFQLSNACQLEPYSAI | < -0.25
128 | RCPAENEAQA | < -0.25
129 | GIEGTVCFVMGRSWSYFGSG | < -0.25
130 | GDW | < -0.25
131 | LHHAV | < -0.25
132 | PDVQISPGRYNKR | < -0.25
133 | PVP | < -0.25
134 | VGAVDCCGEGG | < -0.25
135 | NTGAHIIGANGG | < -0.25
136 | VSSALHDSY | < -0.25
137 | VTL | < -0.25
138 | SKRPDPCTSRGSA | < -0.25

Row | Substance | growth estimate
139 | PLPSRKVKPFRALRVG | < -0.25
140 | LLLPSHLISNWHPLG | < -0.25
141 | MSLHKEVRIAAAVSGTGPDH | < -0.25
142 | LLWWGRDRSAPITRCRLSCH | -0.242
143 | GKKTCRPEGN | < -0.25
144 | VITGLG | < -0.25
145 | HAARDTTWASSV | < -0.25
146 | IQHGPSLLMEALLESRESRN | < -0.25
147 | HLIVAAGITGTMLPLHEHIL | < -0.25
148 | ETHYGV | < -0.25
149 | RKA | < -0.25
150 | RTRSCILYRLSPLKGTWSVS | < -0.25
151 | RLLHVLGARVTQRLITYVTL | < -0.25
152 | PVGLIVRLA | < -0.25
153 | AHCGRSWLESATQFEKSYGP | < -0.25
154 | VDYQILCDNTQSGVEGGLRS | < -0.25
155 | ASRWDSNWLQIKRDLDRSDR | < -0.25
156 | AGTTEMGGTRASIRRTISAV | < -0.25
157 | RDLNEWRCRGCWFLRNHCTV | < -0.25
158 | MSLSVRSSRQIPVG | < -0.25

Quoted from the results shown for reference:
Row | Substance | growth estimate
112 | LIFMGPEESIKKSSMVSTIR | < -0.25
113 | KCEAGEYVIKGRWLIGHAID | < -0.25
114 | LPKPGRGVVWPSTHQDVRSD | < -0.25
115 | LYVRRVLYCKS | < -0.25
116 | WIFKKASSRAISLGTPL | < -0.25
117 | GTCP | < -0.25
118 | VSA | < -0.25
119 | MFRFLKETWR | -0.243
120 | HRHSGH | < -0.25
121 | WRAKTPLRGARGLAETEPWL | < -0.25
122 | YSYL | < -0.25
123 | IQRSKERW | < -0.25
124 | STGASFY | < -0.25
125 | TRLQRSKHDLA | < -0.25
126 | RNILRS | -0.241
127 | AELQEFQLSNACQLEPYSAI | < -0.25
128 | RCPAENEAQA | < -0.25
129 | GIEGTVCFVMGRSWSYFGSG | < -0.25
130 | GDW | < -0.25
131 | LHHAV | < -0.25
132 | PDVQISPGRYNKR | < -0.25
133 | PVP | < -0.25
134 | VGAVDCCGEGG | < -0.25
135 | NTGAHIIGANGG | < -0.25
136 | VSSALHDSY | < -0.25
137 | VTL | < -0.25
138 | SKRPDPCTSRGSA | < -0.25
139 | PLPSRKVKPFRALRVG | < -0.25
140 | LLLPSHLISNWHPLG | < -0.25
141 | MSLHKEVRIAAAVSGTGPDH | < -0.25
142 | LLWWGRDRSAPITRCRLSCH | -0.242
143 | GKKTCRPEGN | < -0.25
144 | VITGLG | < -0.25
145 | HAARDTTWASSV | < -0.25
146 | IQHGPSLLMEALLESRESRN | < -0.25
147 | HLIVAAGITGTMLPLHEHIL | < -0.25
148 | ETHYGV | < -0.25
149 | RKA | < -0.25
150 | RTRSCILYRLSPLKGTWSVS | < -0.25
151 | RLLHVLGARVTQRLITYVTL | < -0.25
152 | PVGLIVRLA | < -0.25
153 | AHCGRSWLESATQFEKSYGP | < -0.25
154 | VDYQILCDNTQSGVEGGLRS | < -0.25
155 | ASRWDSNWLQIKRDLDRSDR | < -0.25
156 | AGTTEMGGTRASIRRTISAV | < -0.25
